In publication PMC7819943, “Rice protein-binding microarrays: a tool to detect cis-acting elements near promoter regions in rice”:
This is one part of the list.

By UniProt entry, the sequences of proteins in these tests, tags left out.
UniProt Q0JBA9, entry or part of it: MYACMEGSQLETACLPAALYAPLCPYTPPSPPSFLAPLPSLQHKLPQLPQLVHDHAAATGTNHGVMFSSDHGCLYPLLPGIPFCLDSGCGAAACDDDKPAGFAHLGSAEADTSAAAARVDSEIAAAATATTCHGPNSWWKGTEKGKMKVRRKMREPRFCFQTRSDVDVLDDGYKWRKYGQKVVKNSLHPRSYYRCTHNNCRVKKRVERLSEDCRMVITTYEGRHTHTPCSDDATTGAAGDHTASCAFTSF

molecular target: OsWRKY34 (Oryza sativa, UniProt Q0JBA9 1-250); experiment: protein-binding microarray (RPBM); PBS, 2% BSA, 51.3 ng/ul salmon testes DNA, 50 uM zinc acetate, 200 nM TF, 25 C, 1 h; high values mean tight binding; conditions: protein: recombinant; tags: N-terminal polyhistidine and DsRed monomer fusion (pET32a); label: CyDye5-dUTP incorporated in the synthesized complementary strand; 3' TTTTT single-stranded linker to array surface; dsDNA, one strand shown
Outline: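 Using Ni–NTA, transcription factors fused N-terminally to polyhistidine and DsRed were purified after expression in E. coli BL21-CodonPlus. These were incubated at 200 nM with a blocked, double-stranded custom Agilent array for 1 h at 25 °C in a buffer containing 50 µM zinc acetate, and the array was washed. The binding signal is per-feature fluorescence intensity (arbitrary units) on an Axon 4000B scanner.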

Compared with “TACTCCATTTCGTAGCTAGTTTGCACATCACCAAACATTCCGGAGTCACCTAGTGCAG”, “GTTGCCAACCGCCACCGTCCTTGCCGCCGCCGTCGCCTCCCGGAGTCACCTAGTGCAG” is higher in binding signal: 8600 fluorescence intensity (a.u.) for the first, 11700 fluorescence intensity (a.u.) for the second.

Compared with “CTCGAACCACTGACCATCCCGTCCACACTGCACCGCGCTACGGAGTCACCTAGTGCAG”, “GATCATCTGGTGGTGTGTTCTACGGGTTGCAGCTTCTTTCCGGAGTCACCTAGTGCAG” is higher in binding signal: 8260 fluorescence intensity (a.u.) for the first, 10600 fluorescence intensity (a.u.) for the second.

Going from “CACGGGTACTTTTGCTAAACCAAACAACAATTTTGGTCAACGGAGTCACCTAGTGCAG” to “GAGCACATGAACAGCTGATTATTTTTTTATCTGTGTGTTACGGAGTCACCTAGTGCAG”, the binding signal falls from 8680 fluorescence intensity (a.u.) to 8330 fluorescence intensity (a.u.).

First: ATTCCACCGCATCGCGCGCGGGGTTAGGGAGGGGCCTGGTCGGAGTCACCTAGTGCAG
Second: CTGCGCGCCGCCACCGCCATGCTCCCGCGCCGCCGACACCCGGAGTCACCTAGTGCAG
The binding signal of the first is lower: 9970 fluorescence intensity (a.u.) for the first, 10100 fluorescence intensity (a.u.) for the second.

First: TGTCCGCCATTGCTTTCGTTTCCTCTTCATGCGATGCGAGCGGAGTCACCTAGTGCAG
Second: TTGCCCTTAATGTTGATCTCTCACTCTCAGCTTTCCACGACGGAGTCACCTAGTGCAG
The binding signal of the first is higher: 9520 fluorescence intensity (a.u.) for the first, 8680 fluorescence intensity (a.u.) for the second.

First: CGTGCCCGTGCCCGTGCCCCGCCCGCCCGCCCGCGTGCCGCGGAGTCACCTAGTGCAG
Second: ACCAGTACTAGCGAGGTGTTTTGAAACATTTTCTTTTACGCGGAGTCACCTAGTGCAG
The binding signal of the first is lower: 8210 fluorescence intensity (a.u.) for the first, 8460 fluorescence intensity (a.u.) for the second.

Compared with “GAAAAGACCTGCAAAGGGTGCTGTTGCACGTGCTTTGTTCCGGAGTCACCTAGTGCAG”, “GGGAGGAGACGAGGGGTAATATGTCTGGTTTGAATGCATTCGGAGTCACCTAGTGCAG” is higher in binding signal: 8710 fluorescence intensity (a.u.) for the first, 9410 fluorescence intensity (a.u.) for the second.

Compared with “GAGCATCGCCGCGCCCCACATGCGGAGCTCCGCCCCAAACCGGAGTCACCTAGTGCAG”, “TGGCCTGTTACGTTGTATATTAAAATCTTGCTCTCTTCTACGGAGTCACCTAGTGCAG” is higher in binding signal: 8310 fluorescence intensity (a.u.) for the first, 8650 fluorescence intensity (a.u.) for the second.

Going from “CGCGCCACCACTTTCACCCCTTGATCGATCACGCCAATTACGGAGTCACCTAGTGCAG” to “ACGTTGTTGTACACTTTATTATGTATGGCGTGATAAATTTCGGAGTCACCTAGTGCAG”, the binding signal rises from 9340 fluorescence intensity (a.u.) to 10100 fluorescence intensity (a.u.).

Compared with “GCCCCACCTGTCACCCACACGTACCCTGAGGCTGTCAGATCGGAGTCACCTAGTGCAG”, “CCGAGTCTACTCCCGTTCAACTTCGAGCACCTGACGCTACCGGAGTCACCTAGTGCAG” is lower in binding signal: 8790 fluorescence intensity (a.u.) for the first, 8030 fluorescence intensity (a.u.) for the second.

Going from “GGGGCGATTTTTTTTTTTTTTTAGAATTGCGAGATAGGGGCGGAGTCACCTAGTGCAG” to “GAATGTTTTTCTGCATACCTGTCGTTGTTTTTAACTGTTGCGGAGTCACCTAGTGCAG”, the binding signal falls from 10700 fluorescence intensity (a.u.) to 8110 fluorescence intensity (a.u.).

Going from “AGGTGATCTCGGTGGTGGTTGTGGCGGTTAACTCCTTCTTCGGAGTCACCTAGTGCAG” to “AAATATCTTCTCGATCGGTCTACAGTTCTGTGGGTGGGGACGGAGTCACCTAGTGCAG”, the binding signal rises from 10100 fluorescence intensity (a.u.) to 12800 fluorescence intensity (a.u.).

Going from “ATCACATGTAGGACTTCATTGTTTCGCTTATTGACGGAATCGGAGTCACCTAGTGCAG” to “GCTTTGAGATGCCTTTGTCTTTTTGGATTGCTAGAGAACACGGAGTCACCTAGTGCAG”, the binding signal rises from 8270 fluorescence intensity (a.u.) to 8780 fluorescence intensity (a.u.).

First: ATATCTATAACTTTTATTTTAGTCATTTCTTCATCCGACACGGAGTCACCTAGTGCAG
Second: GTCCTAAAGTACTTATTGTGTCCGGTTTTGGTTAGTTAAGCGGAGTCACCTAGTGCAG
The binding signal of the first is lower: 9000 fluorescence intensity (a.u.) for the first, 12500 fluorescence intensity (a.u.) for the second.

Going from “ACCTTCTTTGTTGTTTGATTTCTGTTGGTCCCTAGCTGATCGGAGTCACCTAGTGCAG” to “GCGAGTAGGTGGGGCGGGCGTTGCCGCCGGTGGCCGTCGACGGAGTCACCTAGTGCAG”, the binding signal falls from 13300 fluorescence intensity (a.u.) to 8490 fluorescence intensity (a.u.).

Going from “ACGTGTCTATTACCATACTTTATGCTTAGAAATTTCTAGTCGGAGTCACCTAGTGCAG” to “CCCAACCTCCCGCCGCCGCCGCCGCCGCCGCATCCGCATGCGGAGTCACCTAGTGCAG”, the binding signal falls from 11200 fluorescence intensity (a.u.) to 10000 fluorescence intensity (a.u.).

First: TTTTATACTATTCCCTCCGTTTCAGGTTAACATTTTGACTCGGAGTCACCTAGTGCAG
Second: TCAGTGCGAGAGCAAGGCAAGTCATGCAATACGTTTGACCCGGAGTCACCTAGTGCAG
The binding signal of the first is lower: 8190 fluorescence intensity (a.u.) for the first, 8640 fluorescence intensity (a.u.) for the second.

Compared with “TGCGTCCCTCTTCCTTCATTCTCCTGACGCCTAGGGCCCACGGAGTCACCTAGTGCAG”, “GCCGTGTTTTAGTGTTCTTTCTAGCTTATTTACCAAATCACGGAGTCACCTAGTGCAG” is higher in binding signal: 8280 fluorescence intensity (a.u.) for the first, 10000 fluorescence intensity (a.u.) for the second.

Going from “CTTTTGCTTTATCTTGCTTGACTCTCTGGTTTGTCATGTGCGGAGTCACCTAGTGCAG” to “AATCTCTTCTGACATTCGGTCAAACGTTCGATATATATAACGGAGTCACCTAGTGCAG”, the binding signal falls from 11100 fluorescence intensity (a.u.) to 9910 fluorescence intensity (a.u.).

First: GGTGGCGGGCGGAGGCGGGAGGGAGGTGACATGGATGGTCCGGAGTCACCTAGTGCAG
Second: TGCTCGGGACTATTATATTGTAGACTCATTTAACTGAACTCGGAGTCACCTAGTGCAG
The binding signal of the first is higher: 8780 fluorescence intensity (a.u.) for the first, 8070 fluorescence intensity (a.u.) for the second.

Going from “CCTCATCCGCTGCTCTGCTCCCACCATTGCTGCTCTCTCTCGGAGTCACCTAGTGCAG” to “CACATTTGCCTTTTGACTTTTCAACCGCAAGTCCGCAACCCGGAGTCACCTAGTGCAG”, the binding signal falls from 17700 fluorescence intensity (a.u.) to 10100 fluorescence intensity (a.u.).

Going from “GGCCAGCTGATCGATCGATCTCATTCCATAAGCAATGTATCGGAGTCACCTAGTGCAG” to “ACCGAACATACCCCACAACATCCAAAATGGCTACATGATTCGGAGTCACCTAGTGCAG”, the binding signal rises from 8100 fluorescence intensity (a.u.) to 8180 fluorescence intensity (a.u.).

First: TCCCACCACCACACAAATCCACGCCCGCACTACTGCCACCCGGAGTCACCTAGTGCAG
Second: GCATTGATAGCATCAACAGTTTTCTTGCGGACCCAGCTCACGGAGTCACCTAGTGCAG
The binding signal of the first is higher: 9120 fluorescence intensity (a.u.) for the first, 8360 fluorescence intensity (a.u.) for the second.

Going from “GGTTGAATCAAATTGTTCCTCTGTTACACTTACACATCATCGGAGTCACCTAGTGCAG” to “TATTTGTTGTAAGGTGGGGAGGGTTGAGATTTTGACGTGCCGGAGTCACCTAGTGCAG”, the binding signal falls from 11700 fluorescence intensity (a.u.) to 10400 fluorescence intensity (a.u.).

First: CCCACATCAAAACCTTGAATTTTCACAGTTTCTTGCATTTCGGAGTCACCTAGTGCAG
Second: CGTCGACCTCACCGGCGCCGCATCCACGTCAAGCCGCGACCGGAGTCACCTAGTGCAG
The binding signal of the first is higher: 9890 fluorescence intensity (a.u.) for the first, 8410 fluorescence intensity (a.u.) for the second.

Going from “GGATGGGTTATATCTAGTATTGTGGTTGGGACTGCCTATACGGAGTCACCTAGTGCAG” to “TTTTTGTGTGTGTGCTGTGTTCTTGGGTTTCTTGGCAATGCGGAGTCACCTAGTGCAG”, the binding signal falls from 11100 fluorescence intensity (a.u.) to 8650 fluorescence intensity (a.u.).

Going from “TCTGTATACCGTGCACGGAATCCTTGTTTGATTTAATTCACGGAGTCACCTAGTGCAG” to “TGTAACTGTTGTAATATTCCATTGTATTTGATTAAAGACACGGAGTCACCTAGTGCAG”, the binding signal falls from 8520 fluorescence intensity (a.u.) to 8080 fluorescence intensity (a.u.).
